Measurements as given in patent US5670621.
The exact form of at least one protein or probe is not confirmed. At least one result comes from cells or an extract, where the contact may be indirect. No signal at the amounts used counts as a negative.

Chains of the proteins cited; added tags and fusions are not shown. Chains listed by the source or under a name are the forms on record and can include a tag or linker.
cis-DDP SSRP (cellular structure-specific recognition protein) (Homo sapiens), one chain, as listed by the source: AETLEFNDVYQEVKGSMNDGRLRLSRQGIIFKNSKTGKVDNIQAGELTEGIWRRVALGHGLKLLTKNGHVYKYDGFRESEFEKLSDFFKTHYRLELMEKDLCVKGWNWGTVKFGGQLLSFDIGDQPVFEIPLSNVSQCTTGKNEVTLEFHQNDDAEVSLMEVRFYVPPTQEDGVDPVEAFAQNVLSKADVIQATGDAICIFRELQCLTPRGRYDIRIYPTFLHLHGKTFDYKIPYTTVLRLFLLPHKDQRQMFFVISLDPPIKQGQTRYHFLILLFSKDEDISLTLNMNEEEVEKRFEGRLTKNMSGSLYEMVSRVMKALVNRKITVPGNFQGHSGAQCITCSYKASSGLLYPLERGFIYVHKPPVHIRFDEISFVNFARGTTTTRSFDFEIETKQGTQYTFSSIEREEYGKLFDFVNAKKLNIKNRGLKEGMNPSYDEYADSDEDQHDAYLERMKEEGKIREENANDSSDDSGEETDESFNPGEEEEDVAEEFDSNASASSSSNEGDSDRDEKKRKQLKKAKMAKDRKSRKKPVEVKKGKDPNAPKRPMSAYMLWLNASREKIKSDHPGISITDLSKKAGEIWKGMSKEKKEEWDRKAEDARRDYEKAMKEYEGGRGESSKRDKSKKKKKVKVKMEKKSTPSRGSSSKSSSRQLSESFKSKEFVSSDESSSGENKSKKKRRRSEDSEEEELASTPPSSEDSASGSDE

System: cis-DDP SSRP (cellular structure-specific recognition protein) (Homo sapiens)
Assay: EMSA
Settings: protein in an extract, protein details: HeLa nuclear or cytosolic extract, ca. 91-100 kDa, label: 32P, only the site is given

Q: Does “TCTCCTTCTTAGTTCTCTTCTC (double strand) [110 bp ligated 22-mer, cis 1,2-d(ApG)]” bind (cis-DDP 1,2-intrastrand d(ApG) adduct)?
A: Result: binds

Q: Does “TCTCCTTCTTCGTTCTCTTCTC (double strand) [110 bp ligated 22-mer, monofunctional N7-dG]” bind (Pt(NH3)2(N3-cytosine) monofunctional N7-d(G) adduct)?
A: Result: no binding

Q: Does “TCTCCTTCTTGGTTCTCTTCTC (double strand) [44 or 66 bp ligated 22-mer, cis 1,2 adduct]” bind (cis-DDP 1,2-intrastrand adduct, 44 and 66 bp too short, variant of 110 bp ligated 22-mer, cis 1,2-d(GpG))?
A: Result: no binding

Q: Does “TCTCCTTCTTGGTTCTCTTCTC (double strand) [110 bp ligated 22-mer, cis 1,2-d(GpG)]” bind (cis-DDP 1,2-intrastrand d(GpG) adduct)?
A: Result: binds

Q: Does “TCTCCTTCTTGGTTCTCTTCTC (double strand) [110 bp ligated 22-mer, unmodified]” bind (only nonspecific binding, variant of 110 bp ligated 22-mer, cis 1,2-d(GpG))?
A: Result: no binding

Q: Does “TCTCCTTCTTGTGTCTCTTCTC (double strand) [110 bp ligated 22-mer, cis 1,3-d(GpTpG)]” bind (cis-DDP 1,3-intrastrand d(GpTpG) adduct)?
A: Result: no binding

Q: Does “TCTCCTTCTTGTGTCTCTTCTC (double strand) [110 bp ligated 22-mer, trans 1,3-d(GpTpG)]” bind (trans-DDP 1,3-intrastrand d(GpTpG) adduct)?
A: Result: no binding
